The values below come from PMC12083535.

Amino acid sequences for entries named in this document (tags omitted).
UniProt P11147, whole entry: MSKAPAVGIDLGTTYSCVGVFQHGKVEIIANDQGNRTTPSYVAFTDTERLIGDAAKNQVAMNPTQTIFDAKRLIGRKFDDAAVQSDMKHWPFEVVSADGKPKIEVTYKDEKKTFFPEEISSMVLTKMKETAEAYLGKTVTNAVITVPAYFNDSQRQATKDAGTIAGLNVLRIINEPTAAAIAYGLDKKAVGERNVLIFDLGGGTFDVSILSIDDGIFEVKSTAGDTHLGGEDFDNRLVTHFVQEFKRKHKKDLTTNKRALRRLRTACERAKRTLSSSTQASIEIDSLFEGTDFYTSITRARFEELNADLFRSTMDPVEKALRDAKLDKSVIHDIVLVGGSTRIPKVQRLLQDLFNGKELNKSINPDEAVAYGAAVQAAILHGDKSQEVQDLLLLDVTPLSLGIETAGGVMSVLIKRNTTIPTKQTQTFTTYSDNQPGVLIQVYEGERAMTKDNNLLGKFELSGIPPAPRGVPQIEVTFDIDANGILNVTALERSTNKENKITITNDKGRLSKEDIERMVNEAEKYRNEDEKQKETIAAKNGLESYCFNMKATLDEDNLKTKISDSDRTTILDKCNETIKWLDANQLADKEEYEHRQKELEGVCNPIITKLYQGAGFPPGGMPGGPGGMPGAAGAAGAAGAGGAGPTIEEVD

The target in the data set is rHsc70-4 (Drosophila melanogaster) (UniProt P11147). The data set can be described thus: EMSA. To be noted: 25 mM Tris (pH not stated), 50 mM NaCl, 0.1 mg/ml BSA, 31.25 mM DTT, 0.625 mg/ml E. coli tRNA, 30 min 25 C; 4% native PAGE 0.5x TBE on ice; nucleotide assays in PBS; recombinant protein; protein details: 6xHis; label: Cy3; probe letters rebuilt from the primers and the genome. Background: In EMSA bound probe runs differently from free probe, usually more slowly.

For at least one entry, the source does not settle the construct or the ends of the probe.

As for “GGGAGAGCAACUUCUGCUGGUAGCCCAGACCCACCUGGCUGGCGUUGUUCACCUUAGCGCGCACGCUGGCAUCAUCAUCCAGCUGAUACUUGGCGCCGAUGGCGAACUUGGUGUUGCUGGUGCCGCUGGCCCACGACAGCUGUACACCCACAUCCAGCUUGUCCGAAGUGCGUUGGAAGAUCGAGCCGCUGAACUCCUGGCCAUCGUUGCUAAACACCGGACAAGGCAAUCAUUAGUUUGCAUUGAUUUCAUUUGCCAUGCGUGGCAAUUGCAAUACUUACACAGCUGUGUGCAGAACAAAGUCCUUGGUGGUGUAGCCAAGGGCAAAGUUGUUGGUGGUCAGCUUGGACUGUUGUGUGUCAAAUGCGGUCUGGUAGCCGGCCAACCAUCCCUGGUAGCCAAGCACGGCAGAGGCAUUGAUCAAGGGGCCCUUCAGAUCAAUGUUCACAUCCGAAUCGGCCUUGACGUUCUCAUGGCCGUAGGCAACCUUGAACUUGCCGUUCUUGUUUCUGACGAUUUUUAAUUAAAUAUGCAAUAUUAAUUAUUCUGCAGUGAACAUAUAUGUAAUAACAUGUGAUCCUUACCCAGACUGAGGAGCAAAGUUGCCCUCCAGGGACAGCUUCAGACCCUCGAGGAGCUGAUCCUGGACAGCAACCUCGGUUCUCCCUAUAGUGAGUCGUAUUA / GGGAGAACCGAGGUUGCUGUCCAGGAUCAGCUCCUCGAGGGUCUGAAGCUGUCCCUGGAGGGCAACUUUGCUCCUCAGUCUGGGUAAGGAUCACAUGUUAUUACAUAUAUGUUCACUGCAGAAUAAUUAAUAUUGCAUAUUUAAUUAAAAAUCGUCAGAAACAAGAACGGCAAGUUCAAGGUUGCCUACGGCCAUGAGAACGUCAAGGCCGAUUCGGAUGUGAACAUUGAUCUGAAGGGCCCCUUGAUCAAUGCCUCUGCCGUGCUUGGCUACCAGGGAUGGUUGGCCGGCUACCAGACCGCAUUUGACACACAACAGUCCAAGCUGACCACCAACAACUUUGCCCUUGGCUACACCACCAAGGACUUUGUUCUGCACACAGCUGUGUAAGUAUUGCAAUUGCCACGCAUGGCAAAUGAAAUCAAUGCAAACUAAUGAUUGCCUUGUCCGGUGUUUAGCAACGAUGGCCAGGAGUUCAGCGGCUCGAUCUUCCAACGCACUUCGGACAAGCUGGAUGUGGGUGUACAGCUGUCGUGGGCCAGCGGCACCAGCAACACCAAGUUCGCCAUCGGCGCCAAGUAUCAGCUGGAUGAUGAUGCCAGCGUGCGCGCUAAGGUGAACAACGCCAGCCAGGUGGGUCUGGGCUACCAGCAGAAGUUGCUCUCCCUAUAGUGAGUCGUAUUA [dsRNA-2 (dsCG6647)]”, the binding result was “binds”.
